Source: US20260209348A1

What was measured:
[1] = target: hCRD human/mouse hybrid ROR2; assay: dot blot
[2] = target: hKringle human/mouse hybrid ROR2; assay: dot blot
[3] = target: hCRD human/mouse hybrid ROR2; assay: dot blot on nylon membrane, anti-human IgG-HRP
[4] = target: hKringle human/mouse hybrid ROR2; assay: dot blot on nylon membrane, anti-human IgG-HRP
[5] = target: hCRD human/mouse hybrid ROR2; assay: dot blot of arrayed recombinant proteins (key on the sheet)
[6] = target: hKringle human/mouse hybrid ROR2; assay: as above

Binder	binding [1]	binding [2]	binding [3]	binding [4]	binding [5]	binding [6]
h6E6-058 (antibody, human IgG1, V domains shown) VH: EVQLVESGGGLVKPGGSLRLSCAASGFTFSVYGLSWVRQAPGKGLEWVSTISSGGGYTQYAPSVKGRFTISRDNAKNSLYLQMNSLRAEDTAVYYCARHPRDFSYAFDYWGQGTTVTVSS VL: EIVMTQSPATLSVSPGERATLSCKASQDVGHYLAWYQQKPGQAPRLLIYWASTRATGIPARFSGSGSGTEFTLTISSLQSEDFAVYYCQQYNIYPWTFGQGTKVEIK	no binding	binds	no binding	binds	no binding	
h6E6-107 (antibody, human IgG1, V domains shown) VH: EVQLVESGGGLVKPGGSLRLSCAASGFTFSTYGASWVRQAPGKGLEWVSTISSGGGYTHYAPSVKGRFTISRDNAKNSLYLQMNSLRAEDTAVYYCARHPRDFSYALDYWGQGTTVTVSS VL: EIVMTQSPATLSVSPGERATLSCKASQDVGHYVAWYQQKPGQAPRLLIYWASTRATGIPARFSGSGSGTEFTLTISSLQSEDFAVYYCQQYNIYPWTFGQGTKVEIK	no binding	binds	no binding	binds		
h6E6-068 (antibody, human IgG1, V domains shown) VH: EVQLVESGGGLVKPGGSLRLSCAASGFTFSSYGISWVRQAPGKGLEWVSTISSGGGYTHYAHSVKGRFTISRDNAKNSLYLQMNSLRAEDTAVYYCARHPRDFSYALDYWGQGTTVTVSS VL: EIVMTQSPATLSVSPGERATLSCKASQDVGHYLAWYQQKPGQAPRLLIYWASTRATGIPARFSGSGSGTEFTLTISSLQSEDFAVYYCQQYNIYPWTFGQGTKVEIK	no binding	binds	no binding	binds		
h6E6-102 (antibody, human IgG1, V domains shown) VH: EVQLVESGGGLVKPGGSLRLSCAASGFTFSKYGLSWVRQAPGKGLEWVSTISSGGGYTHYVESVKGRFTISRDNAKNSLYLQMNSLRAEDTAVYYCARHPRDFSYASDYWGQGTTVTVSS VL: EIVMTQSPATLSVSPGERATLSCKASQDVGHYVAWYQQKPGQAPRLLIYWASTRATGIPARFSGSGSGTEFTLTISSLQSEDFAVYYCQQYNIYPWTFGQGTKVEIK	no binding	binds	no binding	binds	no binding	binds
h6E6-072 (antibody, human IgG1, V domains shown) VH: EVQLVESGGGLVKPGGSLRLSCAASGFTFSQYGHSWVRQAPGKGLEWVSTISSGGGYTHYADSVKGRFTISRDNAKNSLYLQMNSLRAEDTAVYYCARHPRDFSYAQDYWGQGTTVTVSS VL: EIVMTQSPATLSVSPGERATLSCKASQDVGHYLAWYQQKPGQAPRLLIYWASTRHTGIPARFSGSGSGTEFTLTISSLQSEDFAVYYCQQYNIYPWTFGQGTKVEIK	no binding	binds	no binding	binds		
h6E6-057 (antibody, human IgG1, V domains shown) VH: EVQLVESGGGLVKPGGSLRLSCAASGFTFSHYGVSWVRQAPGKGLEWVSTISSGGGYTHYVASVKGRFTISRDNAKNSLYLQMNSLRAEDTAVYYCARHPRDFSYALDYWGQGTTVTVSS VL: EIVMTQSPATLSVSPGERATLSCKASQDVGHYVAWYQQKPGQAPRLLIYWASTRATGIPARFSGSGSGTEFTLTISSLQSEDFAVYYCQQYNIYPWAFGQGTKVEIK	no binding	binds	no binding	binds		
h6E6-077 (antibody, human IgG1, V domains shown) VH: EVQLVESGGGLVKPGGSLRLSCAASGFTFSHYGTSWVRQAPGKGLEWVSTISSGGGYTHYAPSVKGRFTISRDNAKNSLYLQMNSLRAEDTAVYYCARHPRDFSYAIDYWGQGTTVTVSS VL: EIVMTQSPATLSVSPGERATLSCKASQDVGHYVAWYQQKPGQAPRLLIYWASTRATGIPARFSGSGSGTEFTLTISSLQSEDFAVYYCQQYNIYPWTFGQGTKVEIK	no binding	binds	no binding	binds	no binding	
h6E6-066 (antibody, human IgG1, V domains shown) VH: EVQLVESGGGLVKPGGSLRLSCAASGFTFSAYGSSWVRQAPGKGLEWVSTISSGGGYTHYAPSVKGRFTISRDNAKNSLYLQMNSLRAEDTAVYYCARHPRDFSYAHDYWGQGTTVTVSS VL: EIVMTQSPATLSVSPGERATLSCKASQDVGHYVAWYQQKPGQAPRLLIYWASTRHTGIPARFSGSGSGTEFTLTISSLQSEDFAVYYCQQYNIYPWTFGQGTKVEIK	no binding	binds	no binding	binds		

Further lines, results first:

binding [1]	binding [2]	binding [3]	binding [4]	binding [5]	binding [6]	Binder
no binding	binds	no binding	binds	no binding		h6E6-063 (antibody, human IgG1, V domains shown) VH: EVQLVESGGGLVKPGGSLRLSCAASGFTFSAYGTSWVRQAPGKGLEWVSTISSGGGYTYYAASVKGRFTISRDNAKNSLYLQMNSLRAEDTAVYYCARHPRDFSYAIDYWGQGTTVTVSS VL: EIVMTQSPATLSVSPGERATLSCRASQDVGHYLAWYQQKPGQAPRLLIYWASTRATGIPARFSGSGSGTEFTLTISSLQSEDFAVYYCQQYNIYPWTFGQGTKVEIK
no binding	binds	no binding	binds			h6E6-007 (antibody, human IgG1, V domains shown) VH: EVQLVESGGGLVKPGGSLRLSCAASGFTFSGYGLSWVRQAPGKGLEWVSTISSGGGYTHYAPSVKGRFTISRDNAKNSLYLQMNSLRAEDTAVYYCARHPRDFSYAQDYWGQGTTVTVSS VL: EIVMTQSPATLSVSPGERATLSCKASQDVGHYVAWYQQKPGQAPRLLIYWASTRATGIPARFSGSGSGTEFTLTISSLQSEDFAVYYCQQYNIYPWTFGQGTKVEIK
no binding	binds	no binding	binds	no binding	binds	h6E6-070 (antibody, human IgG1, V domains shown) VH: EVQLVESGGGLVKPGGSLRLSCAASGFTFSQYGHSWVRQAPGKGLEWVSTISSGGGYTHYAHSVKGRFTISRDNAKNSLYLQMNSLRAEDTAVYYCARHPRDFSYANDYWGQGTTVTVSS VL: EIVMTQSPATLSVSPGERATLSCRASQDVGHYLAWYQQKPGQAPRLLIYWASTRATGIPARFSGSGSGTEFTLTISSLQSEDFAVYYCQQYNIYPWTFGQGTKVEIK
no binding	binds	no binding	binds			h6E6-029 (antibody, human IgG1, V domains shown) VH: EVQLVESGGGLVKPGGSLRLSCAASGFTFSHYGVSWVRQAPGKGLEWVSTISSGGGYTHYAQSVKGRFTISRDNAKNSLYLQMNSLRAEDTAVYYCARHPRDFSYAQDYWGQGTTVTVSS VL: EIVMTQSPATLSVSPGERATLSCKASQDVGHYVAWYQQKPGQAPRLLIYWASTRHTGIPARFSGSGSGTEFTLTISSLQSEDFAVYYCQQYNIYPWTFGQGTKVEIK
no binding	binds	no binding	binds			h6E6-056 (antibody, human IgG1, V domains shown) VH: EVQLVESGGGLVKPGGSLRLSCAASGFTFSKYGTSWVRQAPGKGLEWVSTISSGGGYTHYAPSVKGRFTISRDNAKNSLYLQMNSLRAEDTAVYYCARHPRDFSYAQDYWGQGTTVTVSS VL: EIVMTQSPATLSVSPGERATLSCRASQDVGHYVAWYQQKPGQAPRLLIYWASTRATGIPARFSGSGSGTEFTLTISSLQSEDFAVYYCQQYNIYPWTFGQGTKVEIK
no binding	binds	no binding	binds			h6E6-116 (antibody, human IgG1, V domains shown) VH: EVQLVESGGGLVKPGGSLRLSCAASGFTFSTYGVSWVRQAPGKGLEWVSTISSGGGYTHYAGSVKGRFTISRDNAKNSLYLQMNSLRAEDTAVYYCARHPRDFSYALDYWGQGTTVTVSS VL: EIVMTQSPATLSVSPGERATLSCRASQDVGHYLAWYQQKPGQAPRLLIYWASTRATGIPARFSGSGSGTEFTLTISSLQSEDFAVYYCQQYNIYPWTFGQGTKVEIK
no binding	binds	no binding	binds			h6E6-055 (antibody, human IgG1, V domains shown) VH: EVQLVESGGGLVKPGGSLRLSCAASGFTFSQYGHSWVRQAPGKGLEWVSTISSGGGYTHYAESVKGRFTISRDNAKNSLYLQMNSLRAEDTAVYYCARHPRDFSYAQDYWGQGTTVTVSS VL: EIVMTQSPATLSVSPGERATLSCKASQDVGHYLAWYQQKPGQAPRLLIYWASTRATGIPARFSGSGSGTEFTLTISSLQSEDFAVYYCQQYNIYPWTFGQGTKVEIK
no binding	binds	no binding	binds			h6E6-040 (antibody, human IgG1, V domains shown) VH: EVQLVESGGGLVKPGGSLRLSCAASGFTFSSYGHSWVRQAPGKGLEWVSTISSGGGYTHYAPSVKGRFTISRDNAKNSLYLQMNSLRAEDTAVYYCARHPRDFSYAHDYWGQGTTVTVSS VL: EIVMTQSPATLSVSPGERATLSCRASQDVGHYVAWYQQKPGQAPRLLIYWASTRATGIPARFSGSGSGTEFTLTISSLQSEDFAVYYCQQYNIYPWTFGQGTKVEIK

These are yes or no findings as the source states them, for the method shown. For some assays here: Binding can be weak; no strength is given.
